Test results taken from PubChem BioAssay AID222 (DTP/NCI, 2004).
The list is a part of this screen's results and no random one: its compounds were picked by chemical class. Not every dose and run of a compound is shown. T/C: endpoint of the treated group in % of that of the vehicle group. Some entries give survivors of the animals treated and no T/C: the source holds a T/C of zero for them, seemingly a mark for toxic or unscored doses. Some survivor counts are full or nearly so, which does not show that the dose was tolerated: the source hardly ever lists a survival T/C far under the control, and the zero likely stands for such cases as well. Counts of survivors are from the toxicity check (mostly the fifth day) where no day follows; animals may have died later. Schedule codes are those of the source, taken here to give the interval after Q, in days (D) or hours (H), and the number of doses after X. Some doses were run more than once; the values are given in rising order. Where survival is the endpoint, the PubChem record calls one and a half times the control and up active, and a quarter to a half above the control has no call in these data; cut-offs in other NCI protocols can differ. Counts like (3×) give the number of equal values in this list. Some T/C values are followed by the survivors on the day toxicity was checked, most often the fifth; without a count or a note in brackets, all were alive then.

Tested on: C57BL/6 mice, intracerebral ependymoblastoma, median survival T/C
Test: NCI In Vivo Anticancer Drug Screen. Data for tumor model Ependymoblastoma (intracerebral) in C57BL/6 mice
Settings: T/C endpoint: median survival time, schedule: Q01DX005 (ip), higher T/C = longer survival
Method: The antitumor activity of compounds was measured in mice bearing transplantable tumors. Survival or tumor size were measured and the results are expressed as the measurement made in the treated group (T) divided by the measurement made in the vehicle treated control group (C). The tumor model used in this assay is Ependymoblastoma (intracerebral) in C57BL/6 mice

| Compound | T/C (dose: 16.0 mg/kg/injection, vehicle: saline with Tween-80) | T/C (dose: 32.0 mg/kg/injection, vehicle: saline with Tween-80) | T/C (dose: 64.0 mg/kg/injection, vehicle: saline with Tween-80) | T/C (dose: 128.0 mg/kg/injection, vehicle: saline with Tween-80) | T/C (dose: 256.0 mg/kg/injection, vehicle: saline with Tween-80) | T/C (dose: 0.5 mg/kg/injection, vehicle: suspension in saline) | T/C (dose: 1.0 mg/kg/injection, vehicle: suspension in saline) | T/C (dose: 2.0 mg/kg/injection, vehicle: suspension in saline) | survivor count (dose: 4.0 mg/kg/injection, vehicle: suspension in saline) | survivor count (dose: 8.0 mg/kg/injection, vehicle: suspension in saline) |
| --- | --- | --- | --- | --- | --- | --- | --- | --- | --- | --- |
| COc1cc2c(c3oc4cccc(O)c4c(=O)c13)[C@@H]1C=CO[C@@H]1O2 | 89 [9 of 10 alive] and 96 % of control | 96 and 100 % of control | 101 % of control (2×) | 97 and 100 % of control | 96 and 98 % of control |  |  |  |  |  |
| Cc1[nH]c(=O)[nH]c(=O)c1N(CCCl)CCCl |  |  |  |  |  | 110 % of control (2×) | 124 and 127 % of control | 124 and 132 % of control | 10 of 10 | 4 of 10 and 10 of 10 |
